In patent US20070128627A1:
Results are given in words; binding and its absence hold for the method and conditions named. For some assays here: In cells and extracts the contact can be indirect. Some results given as binding are weak or reduced against the parent protein; the word gives no strength. For some assays here: Tags and fused reporters may be left off the sequences shown.

By UniProt entry, the sequences of proteins in these tests, tags left out. Where a name states a change or a piece, a line headed by the entry shows the natural chain unless it says otherwise. Residues count along the entry.
UniProt Q15596: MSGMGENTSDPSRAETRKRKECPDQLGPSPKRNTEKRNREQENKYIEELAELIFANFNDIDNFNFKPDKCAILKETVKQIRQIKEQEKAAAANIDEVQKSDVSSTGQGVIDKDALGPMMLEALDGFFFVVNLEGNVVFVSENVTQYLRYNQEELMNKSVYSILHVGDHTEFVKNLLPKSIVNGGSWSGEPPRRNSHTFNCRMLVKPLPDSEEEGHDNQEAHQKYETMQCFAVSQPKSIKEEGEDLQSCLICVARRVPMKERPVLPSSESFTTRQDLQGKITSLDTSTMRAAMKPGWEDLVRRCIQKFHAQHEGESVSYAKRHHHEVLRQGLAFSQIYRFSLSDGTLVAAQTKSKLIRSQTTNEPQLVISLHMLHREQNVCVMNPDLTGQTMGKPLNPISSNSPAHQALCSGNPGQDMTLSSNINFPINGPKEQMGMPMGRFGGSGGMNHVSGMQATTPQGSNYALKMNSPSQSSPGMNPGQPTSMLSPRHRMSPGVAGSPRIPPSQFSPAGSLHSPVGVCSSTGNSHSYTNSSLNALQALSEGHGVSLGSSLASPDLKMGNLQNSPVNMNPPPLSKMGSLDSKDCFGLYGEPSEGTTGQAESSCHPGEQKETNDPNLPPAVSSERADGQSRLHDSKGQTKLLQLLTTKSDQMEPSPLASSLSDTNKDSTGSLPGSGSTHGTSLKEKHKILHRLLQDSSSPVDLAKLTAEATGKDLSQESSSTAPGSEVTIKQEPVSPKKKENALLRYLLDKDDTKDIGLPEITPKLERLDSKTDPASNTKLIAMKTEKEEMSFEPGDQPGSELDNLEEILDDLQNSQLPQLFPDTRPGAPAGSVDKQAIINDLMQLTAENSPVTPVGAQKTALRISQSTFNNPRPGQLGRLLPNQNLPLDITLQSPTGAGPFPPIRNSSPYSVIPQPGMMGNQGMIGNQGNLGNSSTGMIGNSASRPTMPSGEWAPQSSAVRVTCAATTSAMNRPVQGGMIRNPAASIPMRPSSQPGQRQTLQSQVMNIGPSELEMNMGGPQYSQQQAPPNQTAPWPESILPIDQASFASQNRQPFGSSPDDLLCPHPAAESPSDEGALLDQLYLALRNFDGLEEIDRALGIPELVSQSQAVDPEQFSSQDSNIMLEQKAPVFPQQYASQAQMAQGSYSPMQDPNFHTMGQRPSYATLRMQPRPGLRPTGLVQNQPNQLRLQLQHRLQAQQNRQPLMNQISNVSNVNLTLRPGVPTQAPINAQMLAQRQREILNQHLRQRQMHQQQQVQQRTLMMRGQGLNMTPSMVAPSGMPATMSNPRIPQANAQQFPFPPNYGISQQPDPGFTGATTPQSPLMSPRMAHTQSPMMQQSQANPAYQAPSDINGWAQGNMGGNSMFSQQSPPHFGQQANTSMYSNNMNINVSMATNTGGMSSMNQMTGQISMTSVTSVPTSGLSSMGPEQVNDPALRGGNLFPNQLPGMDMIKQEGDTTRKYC
UniProt P06536: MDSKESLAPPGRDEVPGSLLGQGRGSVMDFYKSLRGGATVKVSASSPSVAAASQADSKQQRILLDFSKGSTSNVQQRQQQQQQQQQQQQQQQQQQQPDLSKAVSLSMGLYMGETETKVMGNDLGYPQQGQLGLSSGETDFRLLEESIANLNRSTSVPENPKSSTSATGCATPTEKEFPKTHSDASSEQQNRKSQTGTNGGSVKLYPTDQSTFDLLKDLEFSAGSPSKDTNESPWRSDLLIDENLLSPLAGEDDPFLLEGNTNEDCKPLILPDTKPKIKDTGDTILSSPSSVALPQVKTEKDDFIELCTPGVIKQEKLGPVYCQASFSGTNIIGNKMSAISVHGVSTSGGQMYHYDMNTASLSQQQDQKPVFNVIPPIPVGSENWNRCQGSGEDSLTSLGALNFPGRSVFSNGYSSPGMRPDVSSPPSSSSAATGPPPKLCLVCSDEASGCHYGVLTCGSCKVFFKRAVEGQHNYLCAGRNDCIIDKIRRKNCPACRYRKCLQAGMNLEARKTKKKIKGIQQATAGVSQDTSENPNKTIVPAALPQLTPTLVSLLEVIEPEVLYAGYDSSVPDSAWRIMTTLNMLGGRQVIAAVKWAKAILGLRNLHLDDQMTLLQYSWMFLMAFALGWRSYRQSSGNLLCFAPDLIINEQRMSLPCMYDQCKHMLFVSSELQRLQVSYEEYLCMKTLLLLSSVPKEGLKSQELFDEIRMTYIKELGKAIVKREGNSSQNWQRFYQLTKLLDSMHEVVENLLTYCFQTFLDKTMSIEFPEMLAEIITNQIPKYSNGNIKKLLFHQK
UniProt Q61026, residues 5-1462: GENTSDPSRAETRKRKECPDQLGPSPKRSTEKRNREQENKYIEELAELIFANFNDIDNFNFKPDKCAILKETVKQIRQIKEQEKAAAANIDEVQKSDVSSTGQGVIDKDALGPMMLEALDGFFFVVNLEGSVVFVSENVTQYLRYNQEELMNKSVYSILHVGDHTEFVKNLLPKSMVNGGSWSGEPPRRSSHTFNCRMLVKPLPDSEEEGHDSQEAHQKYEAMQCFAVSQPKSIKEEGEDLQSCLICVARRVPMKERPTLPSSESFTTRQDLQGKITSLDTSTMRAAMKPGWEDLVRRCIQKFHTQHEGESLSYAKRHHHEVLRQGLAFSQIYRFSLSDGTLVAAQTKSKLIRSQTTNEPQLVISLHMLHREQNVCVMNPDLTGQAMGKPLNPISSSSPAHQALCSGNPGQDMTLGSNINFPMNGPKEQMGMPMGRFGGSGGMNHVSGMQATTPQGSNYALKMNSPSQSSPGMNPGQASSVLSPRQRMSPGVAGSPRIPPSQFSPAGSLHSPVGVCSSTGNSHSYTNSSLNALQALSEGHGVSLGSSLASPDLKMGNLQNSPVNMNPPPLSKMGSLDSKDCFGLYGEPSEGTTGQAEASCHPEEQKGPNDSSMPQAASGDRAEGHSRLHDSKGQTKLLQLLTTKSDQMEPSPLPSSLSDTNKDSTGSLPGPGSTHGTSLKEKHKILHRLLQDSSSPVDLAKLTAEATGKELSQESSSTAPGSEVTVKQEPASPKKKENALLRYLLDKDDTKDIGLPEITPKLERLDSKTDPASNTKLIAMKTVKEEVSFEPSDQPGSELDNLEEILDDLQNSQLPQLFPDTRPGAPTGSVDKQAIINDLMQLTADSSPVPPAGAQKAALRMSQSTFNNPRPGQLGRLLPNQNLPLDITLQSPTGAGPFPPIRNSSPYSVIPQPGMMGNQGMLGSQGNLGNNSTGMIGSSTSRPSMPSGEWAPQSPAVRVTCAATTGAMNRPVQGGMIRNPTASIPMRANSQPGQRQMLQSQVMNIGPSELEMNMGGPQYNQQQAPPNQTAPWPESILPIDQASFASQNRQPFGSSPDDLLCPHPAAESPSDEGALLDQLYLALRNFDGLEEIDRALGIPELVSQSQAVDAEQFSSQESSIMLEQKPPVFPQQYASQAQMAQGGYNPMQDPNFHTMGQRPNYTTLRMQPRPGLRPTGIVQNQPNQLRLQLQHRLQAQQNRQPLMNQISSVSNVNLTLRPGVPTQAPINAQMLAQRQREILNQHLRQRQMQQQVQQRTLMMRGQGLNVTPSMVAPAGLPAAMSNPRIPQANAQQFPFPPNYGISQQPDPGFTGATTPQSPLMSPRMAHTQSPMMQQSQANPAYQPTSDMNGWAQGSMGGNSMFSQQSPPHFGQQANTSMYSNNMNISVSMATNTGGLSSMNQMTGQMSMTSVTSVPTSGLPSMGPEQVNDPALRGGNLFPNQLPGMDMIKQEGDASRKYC

What was measured:
GAL/TIF2.4 (human) = test: mammalian two-hybrid in CV-1 cells, pFRLuc reporter (FIG. 2B)
GST/TIF2.4 (human) = GST/TIF2.4 (human) (UniProt Q15596); test: GST pulldown of [35S]methionine-labeled in vitro translated STAMP fragment, autoradiography (FIG. 7A)
[1] = molecular target: wild type glucocorticoid receptor (GR), full length (UniProt P06536); test: GST pulldown of [35S]methionine-labeled in vitro translated GR, autoradiography (FIG. 7B)
[2] = molecular target: wild type glucocorticoid receptor (GR), full length (UniProt P06536); test: anti-Flag co-immunoprecipitation from Cos-7 cells cotransfected with Flag/STAMP, HA/GRIP1 and GR, ±1 µM Dex; Western blot (FIG. 7C)
HA/GRIP1 (mouse) = HA/GRIP1 (mouse) (UniProt Q61026); test: anti-Flag co-immunoprecipitation from Cos-7 cells cotransfected with Flag/STAMP, HA/GRIP1 and GR; Western blot (FIG. 7C)

B1: VP16/6-6CL1 (protein)
chain: ENTPKENSMKVREWNNKGGHCCKLETQELEPKFNLMQILQDNGNLSKMQARIAFSAYLQHVQIRLMKDSGGQTFSASWAAKEDEQMELVVRFLKRASNNLQHSLRMVLPSRRLALLERRRILAHQLGDFIIVYNKETEQMAEKKSKKKVEEEEEDGVNMENFQEFIRQASEAELEEVLTFYTQKNKSASVFLGTHSKISKNNNNYSDSGAKG
- binding (GAL/TIF2.4 (human)): binds

B2: STAMP fragment of amino acids 623-834, in vitro translated (protein)
chain: ENTPKENSMKVREWNNKGGHCCKLETQELEPKFNLMQILQDNGNLSKMQARIAFSAYLQHVQIRLMKDSGGQTFSASWAAKEDEQMELVVRFLKRASNNLQHSLRMVLPSRRLALLERRRILAHQLGDFIIVYNKETEQMAEKKSKKKVEEEEEDGVNMENFQEFIRQASEAELEEVLTFYTQKNKSASVFLGTHSKISKNNNNYSDSGAKG
modifications: [35S]methionine labeled
- binding (GST/TIF2.4 (human)): binds

B3: GST/STAMP(956C) (protein, not shown: a dimerising Fc or GST)
chain: LPRCRSGSHTIGPFSSFQSAAHIYSQKLSRPSSAKAGSCYLNKHHSGIAKTQKEGEDASLYSKRYNQSMVTAELQRLAEKQAARQYSPSSHINLLTQQVTNLNLATGIINRSSASAPPTLRPIISPSGPTWSTQSDPQAPENHSSSPGSRSLQTGGFAWEGEVENNVYSQATGVVPQHKYHPTAGSYQLQFALQQLEQQKLQSRQLLDQSRARHQAIFGSQTLPNSNLWTMNNGAGCRISSATASGQKPTTLPQKVVPPPSSCASLVPKPPPNHEQVLRRATSQKASKGSSAEGQLNGLQSSLNPAASVPITSSTDPAHTKI
- binding [1]: binds

B4: Flag/STAMP (protein, not shown: small tags and cut ends)
chain: MARDLEETASSSEDEEVISQEDHPCIMWTGGCRRIPVLVFHADAILTKDNNIRVIGERYHLSYKIVRTDSRLVRSILTAHGFHEVHPSSTDYNLMWTGSHLKPFLLRTLSEAQKVNHFPRSYELTRKDRLYKNIIRMQHTHGFKVFHILPQTFLLPAEYAEFCNSYSKDRGPWIVKPVASSRGRGVYLINNPNQISLEENILVSRYINNPLLIDDFKFDVRLYVLVTSYDPLVIYLYEEGLARFATVRYDQGAKNIRNQFMHLTNYSVNKKSGDYVSCDDPEVEDYGNKWSMSAMLRYLKQEGRDTTALMAHVEDLIIKTIISAELAIATACKTFVPHRSSCFELYGFDVLIDSTLKPWLLEVNLSPSLACDAPLDLKIKASMISDMFTVVGFVCQDPAQRASTRPIYPTFESSRRNPFQKPQRCRPLSASDAEMKNLVGSAREKGPGKLGGSVLGLSMEEIKVLRRVKEENDRRGGFIRIFPTSETWEIYGSYLEHKTSMNYMLATRLFQDRMTADGAPELKIESLNSKAKLHAALYERKLLSLEVRKRRRRSSRLRAMRPKYPVITQPAEMNVKTETESEEEEEVALDNEDEEQEASQEESAGFLRENQAKYTPSLTALVENTPKENSMKVREWNNKGGHCCKLETQELEPKFNLMQILQDNGNLSKMQARIAFSAYLQHVQIRLMKDSGGQTFSASWAAKEDEQMELVVRFLKRASNNLQHSLRMVLPSRRLALLERRRILAHQLGDFIIVYNKETEQMAEKKSKKKVEEEEEDGVNMENFQEFIRQASEAELEEVLTFYTQKNKSASVFLGTHSKISKNNNNYSDSGAKGDHPETIMEEVKIKPPKQQQTTEIHSDKLSRFTTSAEKEAKLVYSNSSSGPTATLQKIPNTHLSSVTTSDLSPGPCHHSSLSQIPSAIPSMPHQPTILLNTVSASASPCLHPGAQNIPSPTGLPRCRSGSHTIGPFSSFQSAAHIYSQKLSRPSSAKAGSCYLNKHHSGIAKTQKEGEDASLYSKRYNQSMVTAELQRLAEKQAARQYSPSSHINLLTQQVTNLNLATGIINRSSASAPPTLRPIISPSGPTWSTQSDPQAPENHSSSPGSRSLQTGGFAWEGEVENNVYSQATGVVPQHKYHPTAGSYQLQFALQQLEQQKLQSRQLLDQSRARHQAIFGSQTLPNSNLWTMNNGAGCRISSATASGQKPTTLPQKVVPPPSSCASLVPKPPPNHEQVLRRATSQKASKGSSAEGQLNGLQSSLNPAASVPITSSTDPAHTKI
- binding [2]: binds
- binding (HA/GRIP1 (mouse)): binds
